# From the supplement of paper PMC8728848
# The list shows a part of the results.
# B1: SRS6 (Toxoplasma gondii), Q9NH12 (protein)
# chain: MARTGSMQQRRGGFQTTARMLMAVCVSGVLLLSSGPSSANKLTEGQQNQNSGPGAATQEGPTIEGAVAKCVLKTTAAENGSSRAKNTTGLTLSKENLVVSLQCSGEKNAIVPKDQKKVCSAAPNAKVADCKGADTDKQVTLKSLLGTSGDIQWEKTIVSTDNKGEVMTLKIKESELPLFDKAFFVGCEEDKAQTRTSQATECKVNVSVKARPSTVGENNVVTCAYGKDSNPRPLEVEMSADNDTLTIDCGTDGSLKPTKYTEEFCVTDNSQLESCTTKKFSEILPTFLPSWWVSDSQNGSAKLTIPESGFPEEQQQFRLGCVPKKTTQSPQANPSVKTEKEEGAQNTDASTSNCSVIVTVKASNFSSLASSIAPTAAVAGGAAALTGFLVGSF
# Assays:
# Experiment in all cases: glycan array binding signal (z-score within array); higher = stronger binding
# Conditions in all cases: glycan notation: IUPAC condensed, linker removed
# [1] = target: GlcNAc(b1-3)Gal(b1-4)GlcNAc(b1-3)Gal(b1-4)GlcNAc
# Outline: (§1)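 Glycan array data came from 3228 arrays in the Consortium for Functional Glycomics database, and only arrays with an available protein sequence were kept. Glycan names were put into IUPAC-condensed notation, and columns mapping to the same glycan were averaged. The binding signal is a within-array Z-score, averaged across arrays of one protein sequence run at different concentrations or buffers and across linkers. A negative Z-score can be read as non-binding.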
# GlcNAc(b1-3)GalNAc = target: GlcNAc(b1-3)GalNAc
# Outline: as §1
# GlcNAc(b1-3)Man = target: GlcNAc(b1-3)Man
# Outline: as §1
# [2] = target: GlcNAc(b1-3)[GlcNAc(b1-4)][GlcNAc(b1-6)]GlcNAc
# Outline: as §1
# [3] = target: GlcNAc(b1-3)[GlcNAc(b1-6)]Gal(b1-4)GlcNAc
# Outline: as §1
# [4] = target: GlcNAc(b1-3)[GlcNAc(b1-6)]GalNAc
# Outline: as §1
# [5] = target: GlcNAc(b1-4)Gal(b1-4)GlcNAc
# Outline: as §1
# GlcNAc(b1-4)GlcNAc = target: GlcNAc(b1-4)GlcNAc
# Outline: as §1
# [6] = target: GlcNAc(b1-4)GlcNAc(b1-4)GlcNAc
# Outline: as §1
# [7] = target: GlcNAc(b1-4)GlcNAc(b1-4)GlcNAc(b1-4)GlcNAc(b1-4)GlcNAc
# Outline: as §1
# [8] = target: GlcNAc(b1-4)GlcNAc(b1-4)GlcNAc(b1-4)GlcNAc(b1-4)GlcNAc(b1-4)GlcNAc
# Outline: as §1
# [9] = target: GlcNAc(b1-4)[GlcNAc(b1-6)]GalNAc
# Outline: as §1
# [10] = target: GlcNAc(b1-6)Gal(b1-4)GlcNAc
# Outline: as §1
# GlcNAc(b1-6)GalNAc = target: GlcNAc(b1-6)GalNAc
# Outline: as §1
# GlcNAc3Prop(b1-4)GlcNAc = target: GlcNAc3Prop(b1-4)GlcNAc
# Outline: as §1
# [11] = target: GlcNAc6S(b1-3)Gal(b1-4)GlcNAc
# Outline: as §1
# Kdn(a2-3)Gal(b1-3)GalNAc = target: Kdn(a2-3)Gal(b1-3)GalNAc
# Outline: as §1
# Kdn(a2-3)Gal(b1-3)GlcNAc = target: Kdn(a2-3)Gal(b1-3)GlcNAc
# Outline: as §1
# Kdn(a2-3)Gal(b1-4)Glc = target: Kdn(a2-3)Gal(b1-4)Glc
# Outline: as §1
# Kdn(a2-3)Gal(b1-4)GlcNAc = target: Kdn(a2-3)Gal(b1-4)GlcNAc
# Outline: as §1
# [12] = target: Kdn(a2-3)Gal(b1-4)[Fuc(a1-3)]GlcNAc
# Outline: as §1
# Kdn(a2-6)Gal(b1-4)GlcNAc = target: Kdn(a2-6)Gal(b1-4)GlcNAc
# Outline: as §1
# [13] = target: Man(a1-2)Man(a1-2)Man(a1-3)Man
# Outline: as §1
# [14] = target: Man(a1-2)Man(a1-2)Man(a1-6)[Man(a1-3)]Man
# Outline: as §1
# Man(a1-2)Man(a1-3)Man = target: Man(a1-2)Man(a1-3)Man
# Outline: as §1
# [15] = target: Man(a1-2)Man(a1-3)[Man(a1-2)Man(a1-6)]Man
# Outline: as §1
# [16] = target: Man(a1-2)Man(a1-3)[Man(a1-2)Man(a1-6)]Man(a1-6)[Man(a1-2)Man(a1-2)Man(a1-3)]Man
# Outline: as §1
# [17] = target: Man(a1-2)Man(a1-3)[Man(a1-2)Man(a1-6)]Man(a1-6)[Man(a1-2)Man(a1-2)Man(a1-3)]Man(b1-4)GlcNAc(b1-4)GlcNAc
# Outline: as §1
# [18] = target: Man(a1-2)Man(a1-3)[Man(a1-6)]Man(a1-6)[Man(a1-2)Man(a1-3)]Man(b1-4)GlcNAc(b1-4)GlcNAc
# Outline: as §1
# [19] = target: Man(a1-2)Man(a1-6)[Man(a1-3)]Man(a1-6)[Man(a1-2)Man(a1-2)Man(a1-3)]Man
# Outline: as §1
# [20] = target: Man(a1-2)Man(a1-6)[Man(a1-3)]Man(a1-6)[Man(a1-2)Man(a1-2)Man(a1-3)]Man(b1-4)GlcNAc(b1-4)GlcNAc
# Outline: as §1
# Man(a1-3)[Man(a1-6)]Man = target: Man(a1-3)[Man(a1-6)]Man
# Outline: as §1
# [21] = target: Man(a1-3)[Man(a1-6)]Man(a1-6)[Man(a1-2)Man(a1-3)]Man(b1-4)GlcNAc(b1-4)GlcNAc
# Outline: as §1
# [22] = target: Man(a1-3)[Man(a1-6)]Man(a1-6)[Man(a1-3)]Man
# Outline: as §1
# [23] = target: Man(a1-3)[Man(a1-6)]Man(a1-6)[Man(a1-3)]Man(b1-4)GlcNAc(b1-4)GlcNAc
# Outline: as §1
# [24] = target: Man(a1-3)[Man(a1-6)]Man(b1-4)GlcNAc(b1-4)GlcNAc
# Outline: as §1
# Man(a1-6)Man = target: Man(a1-6)Man
# Outline: as §1
binder,measurement,setting,value
B1,glycan array binding signal (z-score),[1],-1.2
same,glycan array binding signal (z-score),GlcNAc(b1-3)GalNAc,-0.849
same,glycan array binding signal (z-score),GlcNAc(b1-3)Man,0.884
same,glycan array binding signal (z-score),[2],-0.791
same,glycan array binding signal (z-score),[3],0.35
same,glycan array binding signal (z-score),[4],-0.548
same,glycan array binding signal (z-score),[5],-0.257
same,glycan array binding signal (z-score),GlcNAc(b1-4)GlcNAc,-0.382
same,glycan array binding signal (z-score),[6],0.113
same,glycan array binding signal (z-score),[7],-0.431
same,glycan array binding signal (z-score),[8],-0.638
same,glycan array binding signal (z-score),[9],-1.01
same,glycan array binding signal (z-score),[10],0.148
same,glycan array binding signal (z-score),GlcNAc(b1-6)GalNAc,-0.861
same,glycan array binding signal (z-score),GlcNAc3Prop(b1-4)GlcNAc,0.55
same,glycan array binding signal (z-score),[11],-0.536
same,glycan array binding signal (z-score),Kdn(a2-3)Gal(b1-3)GalNAc,1.54
same,glycan array binding signal (z-score),Kdn(a2-3)Gal(b1-3)GlcNAc,-0.434
same,glycan array binding signal (z-score),Kdn(a2-3)Gal(b1-4)Glc,0.224
same,glycan array binding signal (z-score),Kdn(a2-3)Gal(b1-4)GlcNAc,0.128
same,glycan array binding signal (z-score),[12],0.148
same,glycan array binding signal (z-score),Kdn(a2-6)Gal(b1-4)GlcNAc,-0.779
same,glycan array binding signal (z-score),[13],0.984
same,glycan array binding signal (z-score),[14],-0.918
same,glycan array binding signal (z-score),Man(a1-2)Man(a1-3)Man,-0.108
same,glycan array binding signal (z-score),[15],-0.314
same,glycan array binding signal (z-score),[16],0.268
same,glycan array binding signal (z-score),[17],-0.138
same,glycan array binding signal (z-score),[18],0.14
same,glycan array binding signal (z-score),[19],-0.006
same,glycan array binding signal (z-score),[20],0.131
same,glycan array binding signal (z-score),Man(a1-3)[Man(a1-6)]Man,-0.157
same,glycan array binding signal (z-score),[21],1.44
same,glycan array binding signal (z-score),[22],-0.083
same,glycan array binding signal (z-score),[23],0.066
same,glycan array binding signal (z-score),[24],-0.88
same,glycan array binding signal (z-score),Man(a1-6)Man,-0.965

# Reprinted at random: two records from the list
binder,measurement,setting,value
B1,glycan array binding signal (z-score),GlcNAc(b1-6)GalNAc,-0.861
same,glycan array binding signal (z-score),[11],-0.536
